From paper PMC7338052
No constants are given. Whether binding was seen depends on the method and setting. Some results given as binding are weak or reduced against the parent protein; the word gives no strength.

Amino acid sequences for entries named in this document (tags omitted).
UniProt P28482: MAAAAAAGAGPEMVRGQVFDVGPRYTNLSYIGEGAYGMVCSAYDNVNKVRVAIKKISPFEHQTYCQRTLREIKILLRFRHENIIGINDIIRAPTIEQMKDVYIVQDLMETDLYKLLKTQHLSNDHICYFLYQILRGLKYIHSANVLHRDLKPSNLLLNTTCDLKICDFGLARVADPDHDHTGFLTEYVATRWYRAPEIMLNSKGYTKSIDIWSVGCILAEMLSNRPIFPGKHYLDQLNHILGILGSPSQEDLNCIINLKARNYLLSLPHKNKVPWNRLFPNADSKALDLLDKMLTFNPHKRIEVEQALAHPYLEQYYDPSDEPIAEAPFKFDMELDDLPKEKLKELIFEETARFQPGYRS
UniProt O96017: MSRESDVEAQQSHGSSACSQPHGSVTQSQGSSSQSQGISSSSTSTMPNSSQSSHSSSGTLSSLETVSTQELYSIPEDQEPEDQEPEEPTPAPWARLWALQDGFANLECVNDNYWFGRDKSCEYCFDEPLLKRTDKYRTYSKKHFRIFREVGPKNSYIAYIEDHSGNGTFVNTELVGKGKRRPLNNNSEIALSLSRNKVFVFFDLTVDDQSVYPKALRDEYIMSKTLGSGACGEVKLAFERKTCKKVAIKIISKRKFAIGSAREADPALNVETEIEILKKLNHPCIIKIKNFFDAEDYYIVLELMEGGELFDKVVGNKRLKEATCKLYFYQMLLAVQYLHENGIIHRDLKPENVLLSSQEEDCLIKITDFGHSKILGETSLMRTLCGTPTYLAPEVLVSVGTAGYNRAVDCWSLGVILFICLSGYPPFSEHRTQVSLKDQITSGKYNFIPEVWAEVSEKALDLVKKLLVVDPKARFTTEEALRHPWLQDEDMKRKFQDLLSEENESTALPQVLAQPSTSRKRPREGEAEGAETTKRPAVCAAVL

Target: FLAG-ERK2 (UniProt P28482)
Test: far-Western, overlay or dot blot; targets immunopurified, resolved by SDS-PAGE, transferred to PVDF, denatured and renatured in guanidine-HCl buffers; probe in 3% BSA in TBS/Tween 20 overnight at 4°C; fixed with 0.5% paraformaldehyde; bound probe detected by its tag; both purified

Substance: V5-wtCHK2 (from UniProt O96017 1-543) (enzyme)
- binding: binds
